Three substances from article PMC11530239 can be followed below.

Protein sequences, listed by entry. Tags and fused reporters are not part of them. Lines headed by an entry give the natural chain unless they say otherwise; changes in a name come on top.
UniProt Q9NPI6: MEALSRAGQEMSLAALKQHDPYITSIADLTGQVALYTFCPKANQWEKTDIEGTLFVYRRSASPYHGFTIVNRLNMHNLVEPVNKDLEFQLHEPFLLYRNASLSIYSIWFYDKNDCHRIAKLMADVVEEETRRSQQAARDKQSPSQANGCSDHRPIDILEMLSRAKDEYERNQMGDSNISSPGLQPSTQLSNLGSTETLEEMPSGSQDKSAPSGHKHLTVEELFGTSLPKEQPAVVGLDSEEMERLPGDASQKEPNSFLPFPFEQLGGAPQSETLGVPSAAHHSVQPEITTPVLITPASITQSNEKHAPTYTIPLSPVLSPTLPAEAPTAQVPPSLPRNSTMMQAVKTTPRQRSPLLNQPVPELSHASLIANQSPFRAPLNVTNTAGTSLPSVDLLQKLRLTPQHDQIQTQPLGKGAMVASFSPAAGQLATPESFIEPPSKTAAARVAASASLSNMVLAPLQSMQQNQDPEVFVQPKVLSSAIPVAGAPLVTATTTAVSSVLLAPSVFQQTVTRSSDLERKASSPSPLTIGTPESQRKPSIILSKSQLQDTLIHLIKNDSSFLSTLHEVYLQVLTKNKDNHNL
UniProt Q12796: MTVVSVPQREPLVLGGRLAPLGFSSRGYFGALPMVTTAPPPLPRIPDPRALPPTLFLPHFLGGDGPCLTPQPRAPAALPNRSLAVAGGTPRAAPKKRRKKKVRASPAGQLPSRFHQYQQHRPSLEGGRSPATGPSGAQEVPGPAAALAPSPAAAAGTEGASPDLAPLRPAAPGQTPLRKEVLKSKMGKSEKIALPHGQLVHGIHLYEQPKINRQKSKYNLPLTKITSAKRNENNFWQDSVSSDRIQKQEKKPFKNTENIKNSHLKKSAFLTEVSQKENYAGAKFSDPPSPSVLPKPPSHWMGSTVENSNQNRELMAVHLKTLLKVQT
UniProt Q9NPJ4: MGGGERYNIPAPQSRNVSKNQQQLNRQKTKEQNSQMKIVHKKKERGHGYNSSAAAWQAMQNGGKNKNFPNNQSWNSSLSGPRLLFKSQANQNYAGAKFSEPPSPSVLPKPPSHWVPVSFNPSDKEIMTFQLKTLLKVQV

Results are given in words; binding and its absence hold for the method and conditions named. In cells and extracts the contact can be indirect. A result given as binding can be weak or reduced; the word gives no strength.

In the assay the target is GFP-tagged DCP1a EVH1 domain (human) (UniProt Q9NPI6). The experiment in a line: co-IP; GFP-tagged DCP1a (full-length or fragments) overexpressed in DCP1a/b-knockout HEK-293T cells; immunoprecipitated with anti-GFP antibodies in the presence of RNase A; western blot.
With “DCP2 (as co-precipitated with GFP-DCP1a constructs) (from UniProt Q8IU60 1-420) (enzyme)”, the binding entry was “binds”. Regarding “HA-tagged PNRC1 (from UniProt Q12796 1-327)”, the binding entry is recorded as “binds”. For the substance “V5-tagged PNRC2 (from UniProt Q9NPJ4 1-139)”, the binding result is reported as “binds”.
